Reference: PubChem BioAssay AID1508587 (Peter MacCallum Cancer Centre, 2020)
This is one part, drawn at random, of about 1,600 deposited reagents. 623 of them (39%) were called active. 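Calls are for each duplex; lactate ratios contain extreme outliers.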 Reagents against one gene are numbered here. No sequences are given here.

Assay: 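Follow-up of vemurafenib sensitisers scored by lactate made per cell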 (follow-up of hits)
Cells: human WM266.4 melanoma cells with a BRAF V600 mutation
Knock-down reagent: single siRNA against human genes, 25 nM
Time to read-out: 96 h
Conditions: vemurafenib 300 nM (about IC25), given 48 h after transfection for 48 h
Measurement: 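Per-cell lactate from absorbance divided by DAPI nucleus counts, compared with and without vemurafenib, relative to non-targeting siRNA, mean of 2 replicates; nuclear counts also give cell number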
Reading the numbers: lactate per cell, drug vs no drug: higher = less drug-induced drop in lactate per cell; lactate per cell with vemurafenib: higher = more lactate per cell under drug; lactate per cell without drug: higher = more lactate per cell without drug; cell growth with vemurafenib and cell growth without drug: higher = more cell growth over 48 h
Hit rule: 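a duplex is active when its lactate-per-cell ratio with versus without drug falls under 0.55, i.e. 2 SD below non-targeting; a gene is confirmed if 2 or more of 4 duplexes pass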

target gene | reagent | lactate per cell, drug vs no drug | lactate per cell with vemurafenib | lactate per cell without drug | cell growth with vemurafenib | cell growth without drug | Call
CARD11 (GeneID 84433) | 1 | 0.52 | 0.76 | 0.87 | 0.47 | 0.66 | active
CARD11 (GeneID 84433) | 2 | 0.38 | 0.66 | 1.02 | -0.05 | 0.18 | active
CARD11 (GeneID 84433) | 3 | 0.45 | 1.16 | 1.5 | 0.3 | 0.14 | active
CARD11 (GeneID 84433) | 4 | 0.64 | 0.96 | 0.9 | 0.97 | 1.13 | inactive
YTHDF2 (GeneID 51441) | 1 | 0.63 | 1.8 | 1.79 | 0.49 | 0.38 | inactive
YTHDF2 (GeneID 51441) | 2 | 0.46 | 1.1 | 1.47 | 0.57 | 0.4 | active
YTHDF2 (GeneID 51441) | 3 | 0.73 | 1.17 | 1.02 | 0.3 | 0.43 | inactive
YTHDF2 (GeneID 51441) | 4 | 0.3 | 1.34 | 2.88 | 0.05 | -0.03 | active
FAM204A (GeneID 63877) | 1 | 0.44 | 1.44 | 2.34 | -0.05 | 0.02 | active
FAM204A (GeneID 63877) | 2 | 0.59 | 1.44 | 1.77 | 0.57 | 0.33 | inactive
FAM204A (GeneID 63877) | 3 | 0.66 | 1.36 | 1.5 | 0.13 | 0.18 | inactive
FAM204A (GeneID 63877) | 4 | 0.68 | 1.42 | 1.52 | 0.25 | 0.25 | inactive
POM121L12 (GeneID 285877) | 1 | 0.44 | 0.48 | 0.74 | 0.36 | 0.38 | active
POM121L12 (GeneID 285877) | 2 | 0.56 | 1.98 | 2.36 | 0.11 | 0.06 | inactive
POM121L12 (GeneID 285877) | 3 | 0.86 | 2.26 | 1.77 | 0.11 | 0.12 | inactive
POM121L12 (GeneID 285877) | 4 | 0.72 | 0.66 | 0.62 | -0.1 | 0.65 | inactive

4 entries from above, reformatted:
{"target gene": "CARD11 (GeneID 84433)", "reagent": 1, "lactate per cell, drug vs no drug": 0.52, "lactate per cell with vemurafenib": 0.76, "lactate per cell without drug": 0.87, "cell growth with vemurafenib": 0.47, "cell growth without drug": 0.66, "Call": "active"}
{"target gene": "CARD11 (GeneID 84433)", "reagent": 2, "lactate per cell, drug vs no drug": 0.38, "lactate per cell with vemurafenib": 0.66, "lactate per cell without drug": 1.02, "cell growth with vemurafenib": -0.05, "cell growth without drug": 0.18, "Call": "active"}
{"target gene": "CARD11 (GeneID 84433)", "reagent": 3, "lactate per cell, drug vs no drug": 0.45, "lactate per cell with vemurafenib": 1.16, "lactate per cell without drug": 1.5, "cell growth with vemurafenib": 0.3, "cell growth without drug": 0.14, "Call": "active"}
{"target gene": "CARD11 (GeneID 84433)", "reagent": 4, "lactate per cell, drug vs no drug": 0.64, "lactate per cell with vemurafenib": 0.96, "lactate per cell without drug": 0.9, "cell growth with vemurafenib": 0.97, "cell growth without drug": 1.13, "Call": "inactive"}

More reagents follow:
target gene | reagent | lactate per cell, drug vs no drug | lactate per cell with vemurafenib | lactate per cell without drug | cell growth with vemurafenib | cell growth without drug | Call
CCDC159 (GeneID 126075) | 1 | 0.56 | 1.29 | 1.73 | 0.18 | 0.27 | inactive
CCDC159 (GeneID 126075) | 2 | 0.62 | 0.98 | 1.13 | 0.5 | 0.63 | inactive
CCDC159 (GeneID 126075) | 3 | 0.54 | 1.04 | 1.37 | 0.25 | 0.32 | active
CCDC159 (GeneID 126075) | 4 | 0.86 | 1.44 | 1.19 | -0.09 | 0.07 | inactive
HDHD2 (GeneID 84064) | 1 | 0.66 | 0.92 | 0.82 | 0.19 | 0.34 | inactive
HDHD2 (GeneID 84064) | 2 | 0.56 | 1.17 | 1.22 | 0.61 | 0.55 | inactive
HDHD2 (GeneID 84064) | 3 | 0.62 | 2.42 | 2.32 | 0.12 | 0.07 | inactive
HDHD2 (GeneID 84064) | 4 | 0.64 | 1 | 0.92 | 0.65 | 1 | inactive
EMP3 (GeneID 2014) | 1 | 0.77 | 2.97 | 2.96 | -0.08 | -0.07 | inactive
EMP3 (GeneID 2014) | 2 | 0.7 | 1.68 | 1.62 | 0.36 | 0.24 | inactive
EMP3 (GeneID 2014) | 3 | 0.78 | 0.94 | 0.81 | 0.59 | 1.13 | inactive
EMP3 (GeneID 2014) | 4 | 0.86 | 2.53 | 1.99 | 0.22 | 0.23 | inactive
H2BC14 (GeneID 8342) | 1 | 0.31 | 0.52 | 1.12 | 0.16 | 0.29 | active
H2BC14 (GeneID 8342) | 2 | 0.84 | 4.18 | 3.5 | -0.03 | 0 | inactive
H2BC14 (GeneID 8342) | 3 | 0.76 | 1.51 | 1.34 | 0.5 | 0.56 | inactive
H2BC14 (GeneID 8342) | 4 | 0.6 | 0.94 | 1.05 | 0.93 | 1.03 | inactive
MVP (GeneID 9961) | 1 | 0.18 | 0.28 | 0.93 | 0 | 0.19 | active
MVP (GeneID 9961) | 2 | 0.52 | 1.69 | 2.03 | 0.02 | 0.01 | active
MVP (GeneID 9961) | 3 | 0.38 | 0.8 | 1.29 | 0.79 | 0.39 | active
MVP (GeneID 9961) | 4 | 0.6 | 1.04 | 1.1 | 0.94 | 0.67 | inactive
